Results are given in words; binding and its absence hold for the method and conditions named.
Experiments:
Experiment in all cases: fluorescence polarisation; 100 nM FITC-labeled phosphopeptide with increasing hsNbs1(384); room temperature, 15 min incubation; 25 mM HEPES pH 7.4, 150 mM NaCl, 1 mM EDTA, 2 mM DTT, 0.05% Tween20, 0.1% BSA; one-site model; both purified
[1] = biological target: T1, XRCC1 pS518,pT519 phosphopeptide FITC-GG-DPYAG(pSpT)… (human)
T1 sequence (peptide, phosphoserine pS518, phosphothreonine pT519; FITC on the N-terminus (FITC-GG-)): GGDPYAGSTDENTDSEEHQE

By UniProt entry, the sequences of proteins in these tests, tags left out. Residues count along the entry.
UniProt O60934, residues 1-384: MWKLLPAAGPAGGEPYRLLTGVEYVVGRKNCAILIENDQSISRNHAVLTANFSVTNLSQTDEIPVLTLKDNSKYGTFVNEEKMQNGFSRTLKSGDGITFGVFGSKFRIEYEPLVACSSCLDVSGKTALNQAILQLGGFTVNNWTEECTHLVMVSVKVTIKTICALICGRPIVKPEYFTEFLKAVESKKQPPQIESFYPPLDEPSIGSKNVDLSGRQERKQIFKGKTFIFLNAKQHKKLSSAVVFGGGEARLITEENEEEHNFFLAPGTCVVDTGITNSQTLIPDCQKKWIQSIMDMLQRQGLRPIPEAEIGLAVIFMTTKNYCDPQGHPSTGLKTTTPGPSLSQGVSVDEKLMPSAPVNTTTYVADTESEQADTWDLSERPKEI

[2] = biological target: T2, CtIP pS327 phosphopeptide FITC-GG-TRVS(pS)PVFGAT (human)
T2 sequence (peptide, phosphoserine pS327; FITC on the N-terminus (FITC-GG-)): GGTRVSSPVFGAT

[3] = biological target: T3, XRCC1 pS447 phosphopeptide FITC-GG-AGPS(pS)PQKP (human)
T3 sequence (peptide, phosphoserine pS447; FITC on the N-terminus (FITC-GG-)): GGAGPSSPQKP

hsNbs1(384), the N-terminal 384 residues of homo sapiens Nbs1 containing the FHA-BRCT1-BRCT2 domains (from UniProt O60934 1-384) (domain or fragment)
binding [1]: no binding (tested: > 65 µM) | binding [2]: no binding | binding [3]: no binding

— article PMC8079451, “Phosphopeptide interactions of the Nbs1 N-terminal FHA-BRCT1/2 domains” (Scientific Reports, 2021)
